Results from patent US20200308220A1, “AROMATIC-CATIONIC PEPTIDES CONJUGATED TO AN[…] THEIR USE IN TREATING COMPLEX REGIONAL PAIN SYNDROME” (priority 2015, published 2020).
Entries after “also recorded” stand apart in the source; their conditions may differ. Part of at least one peptide drawing is inferred or uncertain, most often the ends. At least one structure is not confirmed: it was looked up by name or label, or the drawing left a doubt. Some compounds share one wording; it may come from a single statement. Where a SMILES comes first, the peptide text is derived from it.

Tests used:
μ opioid receptor (MOR) = assay: Inhibition of electrically evoked contractions of the guinea pig ileum (GPI); format: cell-based
[1] = Reduction of linoleic acid peroxidation initiated with ABAP; format: biochemical; conditions: compared to H-Dmt-D-Arg-Phe-Lys-NH2 ([Dmt^1]DALDA), conjugated dienes at 234 nm, FIG. 1
CPIP rats = assay: Chronic post-ischemia pain (CPIP) rat model of CRPS-I, reversal of mechanical allodynia
Protocol: H-Dmt-D-Arg-Phe-Lys(NH-TEMPO)-NH2 was tested in a chronic post-ischemia pain (CPIP) rat model (see Coderre et al., Pain (2004) 112, 94-105) of CRPS-I in comparison with [Dmt^1]DALDA and morphine (subcutaneous (s.c.) administration). The analgesic potencies (ED50 values) of the compounds were determined based on their ability to reverse mechanical allodynia in CPIP rats (Table 6).

Structure (SMILES)	IC50 (μ opioid receptor (MOR)) [nM]	antioxidant activity: reduction in the rate of peroxidation caused by ABAP [1]	antioxidant activity: reduction in the rate of peroxidation caused by ABAP ([1]; listed as H-Dmt-D-Arg-Phe-Lys(TroN)—NH2)	fold more potent than [Dmt^1]DALDA (CPIP rats; CPIP rats, s.c.) [fold]	Potency Ratio (CPIP rats; relative to morphine (=1), CPIP rats, s.c.)	ED50 ± SEM (analgesic potency) (CPIP rats; reversal of mechanical allodynia in CPIP rats, s.c. administration) [mg/kg]
Cc1cc(O)cc(C)c1C[C@H](N)C(=O)N[C@H](CCCNC(=N)N)C(=O)N[C@@H](Cc1ccccc1)C(=O)N[C@@H](CCCCN)C(=O)NCCC(=O)NC1CC(C)(C)N([O])C(C)(C)C1 [H-Dmt-D-Arg-Phe-Lys-NH—(CH2)2—CO—NH-TEMPO] (HELM PEPTIDE1{[Cc1cc(O)cc(C)c1C[C@H](N)C(=O)[*:2]].[dR].F.K.[bAla].[CC1(C)CC(N[*:1])CC(C)(C)N1[O]]}$$$$V2.0)	445					
Cc1cc(O)cc(C)c1C[C@H](N)C(=O)N[C@H](CCCNC(=N)N)C(=O)N[C@@H](Cc1ccccc1)C(=O)N[C@@H](CCCCNC(=O)[C@@]1(C)CCc2c(C)c(O)c(C)c(C)c2O1)C(N)=O [H-Dmt-D-Arg-Phe-Lys(Tro[R])-NH2]	5.06					
Cc1cc(O)cc(C)c1C[C@H](N)C(=O)N[C@H](CCCNC(=N)N)C(=O)N[C@@H](Cc1ccccc1)C(=O)N[C@@H](CCCCNC[C@]1(C)CCc2c(C)c(O)c(C)c(C)c2O1)C(N)=O [H-Dmt-D-Arg-Phe-Lys(NH—CH2-Tro)-NH2 (S)]		greater reduction in the rate of peroxidation; also recorded: greater antioxidant activity				
Cc1cc(O)cc(C)c1C[C@H](N)C(=O)N[C@H](CCCNC(=N)N)C(=O)N[C@@H](Cc1ccccc1)C(=O)N[C@@H](CCCCNC(=O)[C@]1(C)CCc2c(C)c(O)c(C)c(C)c2O1)C(N)=O [H-Dmt-D-Arg-Phe-Lys(Tro[S])-NH2, H-Dmt-D-Arg-Phe-Lys(Tro[S])—NH2]	2.56	greater antioxidant activity	greater reduction in the rate of peroxidation			
Cc1cc(O)cc(C)c1C[C@H](N)C(=O)N[C@H](CCCNC(=N)N)C(=O)N[C@@H](Cc1ccccc1)C(=O)NC(CCCCNC1CC(C)(C)N([O])C(C)(C)C1)C(N)=O (stereo partly drawn) [H-Dmt-D-Arg-Phe-Lys(NH-TEMPO)-NH2]	3.83	greater reduction in the rate of peroxidation; also recorded: greater antioxidant activity		4.5	67.8	0.0228 ± 0.0096
